## Primary screen of a compound library

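Whole-cell growth test on Mycobacterium tuberculosis, read after 3 days in glucose-containing 7H9 medium; the read-out is not stated. Tested at 50 µM. Higher reads as more growth inhibition (inferred: compounds with an IC50 in retests scored well above the rest). Of about 69,000 compounds tested this way, about 760 (1.1%) reached 50% or more in at least one test.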

Each number is a percent effect as filed. The record does not define 0% and 100%; most values in the screen are far below 50% and negative numbers occur (in some assays of this library far below -100). This is an unselected part of the compounds tested. Two or more numbers in one place are separate tests of the same structure; such repeats can differ widely.

For [H][C@]12CN(c3ncc(CC)cn3)C[C@@]1([H])S(=O)(=O)CC[C@@H]2C(=O)NC(C)C the result was 10.77% & 30.02%. For COc1ccc(Cl)cc1C(=O)NC(CC(=O)O)c1cccs1 (centres undefined) the result was -21.56%. Result for CN1CCN(C2CCN(CC(O)c3ccccc3)CC2)C1=O (centres undefined) was 1.117% & 20.21%. NC(=O)c1ccc2c(c1)nc1n2CCN(Cc2cccnc2)C1 read 8.063%. CN(C)C(=O)N1CC2(CCOCC2)c2cc(NS(=O)(=O)C3CC3)ccc21 read -42.62% & -2.623%. For COCCN1CCC(C(=O)N(C)CCOc2ccc(C)cc2Cl)C1 (centres undefined) the result was 6.188% & 0.9315%. With O=C(O)c1nnn(Cc2cccc(C(F)(F)F)c2)c1-c1cccnc1 the screen gave -33.01%. For CC(CC(=O)NCCCn1cccn1)c1cccnc1 (centres undefined) the result was -11.11%.

Cc1nc(-c2ccccc2)sc1CNC(=O)c1ccc(=O)n(C)c1 gave -10.79%. For Cn1cccc1-c1nnc(C2(c3ccc4c(c3)OCO4)CCOCC2)o1 the result was 12.68%. CC(C)Cn1cc(NC(=O)N2CCCC2)cn1 read 31.61%. With CN1CC(=O)N(c2ccsc2)CC12CCN(C(=O)c1cccn1C)C2.O=C(O)C(F)(F)F (centres undefined) the screen gave 13.23%. CSc1cccc(CN2CCC(CCC(=O)Nc3ccccc3)CC2)c1 read 32.88% & 0.2921%. CCS(=O)(=O)N1CCCn2nnc(Cn3cccc3)c2C1 read 26.91%. Result for Cc1csc(CCNCc2cnc3c(c2)c(C)nn3C)n1.Cl was 6.155% & 6.312%. For Nc1cc(CCC2CN(Cc3ccc4cc[nH]c4c3)CCO2)ccn1 (centres undefined) the result was 41.55%.

Cc1ccc(S(=O)(=O)N2Cc3c(CN(C)C)nn(C)c3C2)cc1 gave 15.91% & -7.522%. CCCc1n[nH]c(C2CN(C(=O)c3ccco3)CCO2)n1 (centres undefined) read -2.503%. Result for Cc1cncnc1C1CCN(CCO)CC1 was -11.98%. For CS(=O)(=O)N1CCCCCC1C1CCN(c2ncccn2)CC1 (centres undefined) the result was 1.899%. With CSCc1noc(CNC2CCCC(C)(C)C2)n1 (centres undefined) the screen gave -9.129%. Result for O=C(O)C(F)(F)F.[H][C@@]12CN(C(=O)C3CC3)C[C@]1([H])OCCN2CC(=O)NC was -8.094% & -2.214%. COCC(C)(C)NC(=O)CC(c1ccccc1)C(F)(F)F (centres undefined) read -9.225%. Cc1cccc(C(=O)N2CCc3c(CN(C)C)nn(C)c3C2)n1 gave 11.38%.

Result for Cc1ccn(-c2ccc(N3CCCN(Cc4ccccc4)CC3)nn2)n1 was 15.69% & 1.384%. For CCS(=O)(=O)N1Cc2c(Cn3ccnc3)nn(C)c2C1 the result was -3.237% & -10.75%. For CN(C)Cc1nc(C(C)(C)NC(=O)C2CC(=O)N(CC3CC3)C2)no1 (centres undefined) the result was -37.89%. With Cc1occc1C(=O)N1CCC(C(O)c2ccc(F)cc2)CC1 (centres undefined) the screen gave 17.3%. CC(C)c1nnc2n1CC(CNCc1nnc(C(C)(C)C)o1)CC2 (centres undefined) read -32.88%. N#Cc1c(C2CCOC2)cc(-c2ccc(N3CCCCC3)cc2)nc1N (centres undefined) read -1.728%. COc1ccc(-n2cccn2)cc1S(=O)(=O)N1C[C@H](C2CC2)[C@@H](N)C1 gave 16.18%. CC(C)(CC(=O)N(CC(N)=O)C1CCCC1)c1ccccc1 gave 6.792%.

For Cc1nc2c(N(C)Cc3ccnn3C)nc(N)nc2n1C the result was -37.54%. CNc1nc(C)cc(NCc2cc(C)cc3c(C)c(C)[nH]c23)n1 gave 51.15% & 65.28%. For OCCn1nccc1C1CCN(CCOc2ccccc2)CC1 the result was 19.83%. With Cc1cc(C)n(CC2CCCN2C(=O)CCc2ccco2)n1 (centres undefined) the screen gave 22.65%. CC(NCC1=Cc2cc(Cl)ccc2OC1)c1nnc2n1CCCC2 (centres undefined) read 28.36%. With CCn1cc(S(=O)(=O)N2CCCCCC2c2cc(C)on2)cn1 (centres undefined) the screen gave 12.77%. Cc1cnc(CN(C)C2CCN(Cc3ccc(Cl)s3)C2)o1 (centres undefined) gave -4.32%. Result for O=C(c1cccs1)N1CCc2ncnc(C3CCOC3)c2CC1 (centres undefined) was -22.88%.

Cc1ccc(CNc2n[nH]c(C)n2)cc1 gave 17.7%. For [H][C@@]12CN(C(=O)c3ccoc3)C[C@]1([H])CN(c1ncccn1)C2 the result was -0.1512% & -32.13%. Result for c1csc(-c2noc(C3CCCOC3)n2)c1 (centres undefined) was 7.289%. For O=C(C1CCOC1)N1CCC(OCc2ccccc2)CC1 (centres undefined) the result was -7.467% & -2.313%. For O=C(O)C(F)(F)F.c1cnc(N2CCOCC3(CCCN(Cc4cc[nH]n4)C3)C2)nc1 (centres undefined) the result was -2.532% & -11.92%. Result for CCOc1ncccc1CNCc1c(C(C)C)nn(C)c1N(C)C was 24.67%. With CCc1noc(CN(CC(=O)N2CCCCC2)c2ccc(C)cc2)n1 the screen gave 13.68%. Result for COc1ccc(CN2CCN(C(C)c3nc(C4CC4)no3)CC2)cc1 (centres undefined) was -5.956%.

Result for O=C(O)C(F)(F)F.[H][C@@]12CCN(c3cccnc3)C[C@]1([H])CN(C(=O)c1ccncc1)C2 was 28.05%. For CC(C)C(C(=O)N1CCC2(CC1)CN(C)C(=O)O2)c1ccccc1 (centres undefined) the result was -17.12%. COc1ccc2nc(C3CC3)cc(C(=O)NCC(=O)N(C)C)c2c1 gave -3.534%. Result for Cc1noc(C)c1CN(C)C(=O)c1ccc(O)nc1 was 27.05%. O=C(O)C(F)(F)F.[H][C@]12CCN(c3ccc(C)nn3)C[C@@]1([H])CN(Cc1cccnc1OC)C2 read -59.43%. For O=C(NCC1CCOCC1)c1cc(-c2cccnc2)c2cnccc2n1 the result was 5.389%. With O=c1oc(-c2ccc(F)cc2)nn1CCS(=O)(=O)c1ccccc1 the screen gave -22.66%. For CO[C@H]1CN(C(=O)c2ccc(-c3cc[nH]n3)cc2)CC[C@H]1N the result was -4.155%.

COc1cccn(Cc2nnc(-c3cccnc3)o2)c1=O read 22.35%. O=C(O)C(F)(F)F.O=C(O)C(F)(F)F.[H][C@]12C[C@@H](CN3CCCC3)N(C)[C@@]1([H])CCN(C(=O)Cc1ccsc1)C2 gave -12.33%. For CC(C(=O)NCCc1ccc2c(c1)OCCO2)n1cncn1 (centres undefined) the result was -27.81%. CCN(CC)CC1CCN(Cc2ncc(C(C)(C)C)o2)CC1 gave 4.543%.

5 of the entries, repeated:

* CCN(CC)CC1CCN(Cc2ncc(C(C)(C)C)o2)CC1 | 4.543%
* COc1ccc2nc(C3CC3)cc(C(=O)NCC(=O)N(C)C)c2c1 | -3.534%
* CO[C@H]1CN(C(=O)c2ccc(-c3cc[nH]n3)cc2)CC[C@H]1N | -4.155%
* Cc1cncnc1C1CCN(CCO)CC1 | -11.98%
* OCCn1nccc1C1CCN(CCOc2ccccc2)CC1 | 19.83%

Measurements from “University of Dundee, Small-Polar-MMV Screening Library” (2021), ChEMBL document CHEMBL3988442.